According to patent US20090099094A1, “Use of Somatostatin Agonists to Treat Medullary Thyroid Carcinoma” (priority 2007, published 2009):
“Also recorded” adds a separate entry of the source. At least one peptide structure holds a part that was inferred or is arguable (an end, a ring closure or a residue). For some of these results: At least one compound was matched to its structure with a doubt left. Bridge positions count the residues as written; N and C are the ends. Square brackets hold non-standard residues; d marks the D form. Peptide text beside a SMILES is read from it. * marks the point of attachment. Acetyl(thymin-1-yl) = Cc1cn(CC(=O)*)c(=O)[nH]c1=O; Adenin9ylacetyl = Nc1ncnc2c1ncn2CC(=O)*; Gly(N-2-aminoethyl) = NCCNCC(=O)O; 3Pal = N[C@@H](Cc1cccnc1)C(=O)O; X1 = Nc1ccn(CC(=O)*)c(=O)n1; Bn = c1ccc(C*)cc1

Protein sequences, listed by entry. Tags and fused reporters are not part of them. Lines headed by an entry give the natural chain unless they say otherwise; changes in a name come on top.
UniProt P30872: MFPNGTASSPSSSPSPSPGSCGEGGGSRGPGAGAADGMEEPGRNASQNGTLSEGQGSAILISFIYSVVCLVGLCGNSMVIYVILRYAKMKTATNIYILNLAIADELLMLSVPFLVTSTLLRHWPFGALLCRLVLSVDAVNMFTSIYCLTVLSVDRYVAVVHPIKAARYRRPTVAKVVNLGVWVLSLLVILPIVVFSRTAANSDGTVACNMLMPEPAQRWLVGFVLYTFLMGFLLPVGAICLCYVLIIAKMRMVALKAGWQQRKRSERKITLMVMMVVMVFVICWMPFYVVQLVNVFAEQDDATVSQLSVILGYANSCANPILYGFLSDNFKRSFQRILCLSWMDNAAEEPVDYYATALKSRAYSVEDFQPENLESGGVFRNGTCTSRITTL
UniProt P30874: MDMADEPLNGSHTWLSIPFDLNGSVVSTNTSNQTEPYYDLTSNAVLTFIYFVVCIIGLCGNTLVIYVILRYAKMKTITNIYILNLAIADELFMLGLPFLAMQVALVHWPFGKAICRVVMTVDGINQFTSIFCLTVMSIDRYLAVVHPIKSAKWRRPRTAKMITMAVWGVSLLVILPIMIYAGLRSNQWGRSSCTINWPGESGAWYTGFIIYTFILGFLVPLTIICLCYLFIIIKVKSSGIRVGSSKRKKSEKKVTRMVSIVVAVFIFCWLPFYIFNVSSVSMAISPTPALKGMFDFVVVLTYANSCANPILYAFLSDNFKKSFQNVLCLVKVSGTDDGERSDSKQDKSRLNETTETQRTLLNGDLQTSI
UniProt P32745: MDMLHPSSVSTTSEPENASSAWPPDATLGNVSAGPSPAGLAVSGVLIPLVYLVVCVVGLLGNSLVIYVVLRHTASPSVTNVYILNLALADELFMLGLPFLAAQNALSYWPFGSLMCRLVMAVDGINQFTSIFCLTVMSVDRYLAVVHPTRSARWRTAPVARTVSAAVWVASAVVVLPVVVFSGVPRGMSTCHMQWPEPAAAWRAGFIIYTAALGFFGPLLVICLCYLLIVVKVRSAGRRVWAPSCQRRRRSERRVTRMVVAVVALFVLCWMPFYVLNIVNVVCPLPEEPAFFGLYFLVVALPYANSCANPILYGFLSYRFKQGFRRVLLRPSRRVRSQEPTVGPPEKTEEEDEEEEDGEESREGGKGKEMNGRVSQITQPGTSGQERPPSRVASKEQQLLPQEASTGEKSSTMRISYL
UniProt P31391: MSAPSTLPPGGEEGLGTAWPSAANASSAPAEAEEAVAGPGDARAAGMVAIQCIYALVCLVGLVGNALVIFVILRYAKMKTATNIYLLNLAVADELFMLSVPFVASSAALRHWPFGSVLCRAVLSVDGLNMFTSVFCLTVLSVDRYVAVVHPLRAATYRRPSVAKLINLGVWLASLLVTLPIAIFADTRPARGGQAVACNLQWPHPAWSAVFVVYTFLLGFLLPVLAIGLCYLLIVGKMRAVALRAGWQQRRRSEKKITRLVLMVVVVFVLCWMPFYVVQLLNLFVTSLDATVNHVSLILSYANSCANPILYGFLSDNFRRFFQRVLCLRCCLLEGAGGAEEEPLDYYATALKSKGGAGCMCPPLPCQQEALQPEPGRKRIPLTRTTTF
UniProt P35346: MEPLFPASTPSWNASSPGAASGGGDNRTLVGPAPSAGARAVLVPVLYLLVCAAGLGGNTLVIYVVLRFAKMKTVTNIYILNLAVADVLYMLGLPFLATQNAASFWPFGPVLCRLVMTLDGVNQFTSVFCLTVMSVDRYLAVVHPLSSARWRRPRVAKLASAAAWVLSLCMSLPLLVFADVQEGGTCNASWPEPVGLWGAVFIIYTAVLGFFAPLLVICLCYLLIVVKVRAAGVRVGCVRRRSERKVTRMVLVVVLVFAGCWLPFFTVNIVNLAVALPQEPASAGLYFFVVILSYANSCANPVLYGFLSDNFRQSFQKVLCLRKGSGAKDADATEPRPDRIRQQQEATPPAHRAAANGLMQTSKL

Columns and labels:
SSTR1 = SSTR1 (Homo sapiens, UniProt P30872); experiment: SSTR receptor binding affinity (Ki), SSTR1; conditions: read-out: SSTR Specificity Ki SSTR1
SSTR2 = SSTR2 (Homo sapiens, UniProt P30874); experiment: SSTR receptor binding affinity (Ki), SSTR2; conditions: read-out: SSTR Specificity Ki SSTR2
SSTR3 = SSTR3 (Homo sapiens, UniProt P32745); experiment: SSTR receptor binding affinity (Ki), SSTR3; conditions: read-out: SSTR Specificity Ki SSTR3
SSTR4 = SSTR4 (Homo sapiens, UniProt P31391); experiment: SSTR receptor binding affinity (Ki), SSTR4; conditions: read-out: SSTR Specificity Ki SSTR4
SSTR5 = SSTR5 (Homo sapiens, UniProt P35346); experiment: SSTR receptor binding affinity (Ki), SSTR5; conditions: read-out: SSTR Specificity Ki SSTR5
[1] = tested on: medullary thyroid carcinoma primary cultures; experiment: Cell viability of MTC primary cultures (MTT); format: cell-based, human; conditions: 10^−8 M, forty-eight hours
Experimental: Primary cultured cells from 18 selected MTC samples were incubated in ninety six well plates for forty eight hours with each SSTR agonist at 10^−8 M. Control cells were treated with vehicle solution. Cell viability was measured by a colorimetric method among eight replicates from treated and untreated (control) primary cultured cells. […] Data are expressed as the mean±SE percent cell viability reduction vs. untreated control cells. *P<0.05, and **P<0.01 vs. control.
(§1) Tissue samples were surgically removed in accordance with the guidelines of the local comnmittees on human research. Thyroid tissue samples were obtained under sterile conditions and immediately minced in RPMI 1640 tissue culture medium. Tissues were incubated with 0.25% trypsin overnight at 4° C. and then dissociated using 0.35% collagenase (Sigma, Milano, ITALY) and 1% trypsin at 37° C. for sixty minutes. Cell suspensions were filtered through double layers of gaus(e and washed twice with serum-free F-12 Ham's Nutrient Modified Medium (F-12; Euroclone Ltd, Wetherby, UNITED KINGDOM). Tumor cells were re-suspended in F-12 with 10% fetal bovine serum and antibiotics, seeded in ninety-six well culture plates (˜2×10^4 cells/well) and incubated at 37° C. in a humidified atmosphere of 5% CO2 and 95% air according to known procedures (Zatelli, M. C. et al., Endocrinology, 2005, 146:2692-8). Approximately twenty-four hours later, the prepared cells were treated with the selected somatostatin agonist and were monitored for hormone secretion and overall viability. Informed consent of the patients was obtained for disclosing clinical investigation and performing the in vitro study.
The effects of the tested somatostatin analogs on medullary thyroid carcinoma primary culture cell viability were assessed with a Cell Proliferation Kit I MTT® (Roche Diagnostics GmbH, Mannheim, GERMANY) which employs a colorimetric method for determining the number of viable cells in proliferation assays. Primary cultured cells were plated in ninety-six multiwell plates (2×10^4 cells/well) and incubated for forty-eight hours in a medium supplemented with 10% fetal bovine serum in the presence or absence of each somatostatin analog at 10^−8M. Treatments were renewed after the first twenty-four hours of incubation.
In order to investigate the effects of somatostatin analogs on medullary thyroid carcinoma cell viability, an MTT assay was performed in primary cultures derived from the eighteen selected medullary thyroid carcinoma samples, treated with or without each somatostatin analog at […] for forty-eight hours. Percent cell viability reduction compared to a control in each primary culture under treatment with each somatostatin analog is reported in Table 6.

[2] = tested on: medullary thyroid carcinoma primary cultures; experiment: Calcitonin secretion by MTC primary cultures (IRMA); format: cell-based, human; conditions: 10^−8 M, six hours
Experimental: Primary cultured cells from 18 selected MTC samples were incubated in ninety six well plates for six hours with each SSTR agonist at 10^−8 M. Control cells were treated with vehicle solution. Calcitonin levels in the conditioned medium were measured by immunoradiometric assay (IRMA) among eight replicates in the conditioned medium from treated and untreated (control) primary cultured cells. […] Data are expressed as the mean±SE percent hormone secretion inhibition vs. untreated control cells. *P<0.05 and **P<0.01 vs. control.
as §1
Calcitonin levels were measured in a conditioned medium from treated and untreated primary cultured cells with the calcitonin-U.S.-IRMA® kit (Biosource Europe, Nivelles, BELGIUM) after a six hour treatment with […] of the selected somatostatin analogs. The intra- and inter-assay variation coefficients were 1.9-2.7% and 1.9-3.3%, respectively. The detection limit was 0.8 pg/ml. Hormone assays were performed in duplicate of conditioned medium from treated cells. Results were obtained by determining the mean value among eight replicates.
In order to investigate the effects of somatostatin analogs on hormone secretion, calcitonin and CgA levels were measured in conditioned media collected from primary cultures derived from the selected eighteen medullary thyroid carcinoma treated with or without each somatostatin analog at 10^−8M for six hours.
According to this criterion, […] as “responders” (group A: primary cultures #3, #5, #6, #7, #11, #12, #13, #14, #15, #16) and nine as “non responders” (group B: primary cultures #1, #2, #4, #8, #9, #10, #17, #18).

[3] = MTC primary culture #1 (non responder)
[4] = MTC primary culture #2 (non responder)
[5] = MTC primary culture #3 (responder)
[6] = MTC primary culture #4 (non responder)
[7] = MTC primary culture #5 (responder)
[8] = MTC primary culture #6 (responder)
[9] = MTC primary culture #7 (responder)
[10] = MTC primary culture #8 (non responder)
[11] = MTC primary culture #9 (non responder)
[12] = MTC primary culture #10 (non responder)
[13] = MTC primary culture #11 (responder)
[14] = MTC primary culture #12 (responder)
[15] = MTC primary culture #13 (responder)
[16] = MTC primary culture #14 (responder)
[17] = MTC primary culture #15 (responder)
[18] = MTC primary culture #16 (responder)
[19] = MTC primary culture #17 (non responder)
[20] = MTC primary culture #18 (non responder)
[21] = group B (lanreotide non-responsive) mean

Compound `C[C@@H](OCc1ccccc1)[C@H](NC(=O)[C@H]1CSSC[C@@H](NC(=O)CN(CCN)C(=O)Cn2cnc3c(N)ncnc32)C(=O)N[C@@H](Cc2cccnc2)C(=O)N[C@H](Cc2c[nH]c3ccccc23)C(=O)N[C@@H](CCCCN)C(=O)N1)C(=O)N[C@@H](Cc1ccc(O)cc1)C(N)=O` [Aaeg-[D-Cys-Pal-D-Trp-Lys-D-Cys]-Thr(Bzl)-Tyr-NH2] (Adenin9ylacetyl-[Gly(N-2-aminoethyl)][dC][3Pal][dW]K[dC]T(Bn)Y-NH2; disulfide 2-6; N-terminus assumed) has a Ki (SSTR1) of 3.7 nM, a Ki (SSTR2) greater than 1000 nM and a Ki (SSTR3) greater than 1000 nM. For the same compound, the Ki (SSTR4) was greater than 1000 nM and the Ki (SSTR5) was 458 nM.
With `C[C@@H](OCc1ccccc1)[C@H](NC(=O)[C@H]1CSSC[C@@H](NC(=O)CN(CCN)C(=O)Cn2ccc(N)nc2=O)C(=O)N[C@@H](Cc2ccccc2)C(=O)N[C@H](Cc2c[nH]c3ccccc23)C(=O)N[C@@H](CCCCN)C(=O)N1)C(=O)N[C@@H](Cc1ccc(O)cc1)C(N)=O` [Caeg-c[D-Cys-Phe-D-Trp-Lys-D-Cys]-Thr(Bzl)-Tyr-NH2] (X1-[Gly(N-2-aminoethyl)][dC]F[dW]K[dC]T(Bn)Y-NH2; disulfide 2-6; N-terminus assumed) the Ki (SSTR1) was 2.81 nM, the Ki (SSTR2) was greater than 1000 nM and the Ki (SSTR3) was greater than 1000 nM. The Ki (SSTR4) was 918 nM and the Ki (SSTR5) was 150 nM.
`C[C@@H](OCc1ccccc1)[C@H](NC(=O)[C@H]1CSSC[C@@H](NC(=O)CN(CCN)C(=O)Cn2ccc(N)nc2=O)C(=O)N[C@@H](Cc2cccnc2)C(=O)N[C@H](Cc2c[nH]c3ccccc23)C(=O)N[C@@H](CCCCN)C(=O)N1)C(=O)N[C@@H](Cc1ccc(O)cc1)C(N)=O` [Cmpd #1, Caeg-c[D-Cys-3-Pal-D-Trp-Lys-D-Cys]-Thr(Bzl)-Tyr-NH2] (X1-[Gly(N-2-aminoethyl)][dC][3Pal][dW]K[dC]T(Bn)Y-NH2; disulfide 2-6; N-terminus assumed) was tested, and the “% cell viability reduction vs. control” value [1, 3] was 66.6%, the “% cell viability reduction vs. control” value [1, 4] was −73.8% and the “% cell viability reduction vs. control” value [1, 5] was −1.7%. For the same compound, the “% cell viability reduction vs. control” value [1, 6] was −5.7%, the “% cell viability reduction vs. control” value [1, 7] was −10.3% and the “% cell viability reduction vs. control” value [1, 8] was 21.7%. For the same compound, the “% cell viability reduction vs. control” value [1, 9] was 14.2%, the “% cell viability reduction vs. control” value [1, 10] was 7.4% and the “% cell viability reduction vs. control” value [1, 11] was 13.7%. The “% cell viability reduction vs. control” value [1, 12] was 3.5%, the “% cell viability reduction vs. control” value [1, 13] was −4.1% and the “% cell viability reduction vs. control” value [1, 14] was −5.4%. For the same compound, the “% cell viability reduction vs. control” value [1, 15] was −11.8%, the “% cell viability reduction vs. control” value [1, 16] was 7.3% and the “% cell viability reduction vs. control” value [1, 17] was 6.1%. The “% cell viability reduction vs. control” value [1, 18] was −0.3%, the “% cell viability reduction vs. control” value [1, 19] was −9.7% and the “% cell viability reduction vs. control” value [1, 20] was −2.6%. For the same compound, the “cell viability, change vs. control (signed, negative = reduced)” value [1, 21] was “neither affected; also recorded: but not by”, the Ki (SSTR1) was 4.33 nM and the Ki (SSTR2) was greater than 1000 nM. For the same compound, the Ki (SSTR3) was greater than 1000 nM, the Ki (SSTR4) was 833 nM and the Ki (SSTR5) was 606 nM. The “% CT secretion inhibition vs. control” value [2, 3] was −7.7%, the “% CT secretion inhibition vs. control” value [2, 4] was −13.8% and the “% CT secretion inhibition vs. control” value [2, 5] was −15.6%. The “% CT secretion inhibition vs. control” value [2, 6] was −20.6%, the “% CT secretion inhibition vs. control” value [2, 7] was −15.1% and the “% CT secretion inhibition vs. control” value [2, 8] was −20.2%. The “% CT secretion inhibition vs. control” value [2, 9] was −10.5%, the “% CT secretion inhibition vs. control” value [2, 10] was −12.8% and the “% CT secretion inhibition vs. control” value [2, 11] was −9.4%. For the same compound, the “% CT secretion inhibition vs. control” value [2, 12] was −3.8%, the “% CT secretion inhibition vs. control” value [2, 13] was −25.8% and the “% CT secretion inhibition vs. control” value [2, 14] was −16.8%. For the same compound, the “% CT secretion inhibition vs. control” value [2, 15] was −13.3%, the “% CT secretion inhibition vs. control” value [2, 16] was −12.1% and the “% CT secretion inhibition vs. control” value [2, 17] was −22.6%. The “% CT secretion inhibition vs. control” value [2, 18] was −14.7%, the “% CT secretion inhibition vs. control” value [2, 19] was −26.9% and the “% CT secretion inhibition vs. control” value [2, 20] was −14.6%. For the same compound, the “calcitonin secretion, change vs. control (signed, negative = reduced)” value ([2]; group A (lanreotide responsive) mean) was −17% and the “calcitonin secretion, change vs. control (signed, negative = reduced)” value [2, 21] was −13%.
`Cc1cn(CC(=O)N(CCN)CC(=O)N[C@@H]2CSSC[C@H](C(=O)N[C@@H](COCc3ccccc3)C(=O)N[C@@H](Cc3ccc(O)cc3)C(N)=O)NC(=O)[C@H](CCCCN)NC(=O)[C@@H](Cc3c[nH]c4ccccc34)NC(=O)[C@H](Cc3cccnc3)NC2=O)c(=O)[nH]c1=O` [Taeg-c[D-Cys-3-Pal-D-Trp-Lys-D-Cys]-Ser(Bzl)-Tyr-NH2] ({Acetyl(thymin-1-yl)}-[Gly(N-2-aminoethyl)][dC][3Pal][dW]K[dC]S(Bn)Y-NH2; disulfide 2-6; N-terminus assumed) showed a Ki (SSTR1) of 3.74 nM, a Ki (SSTR2) greater than 1000 nM and a Ki (SSTR3) greater than 1000 nM. It also gave a Ki (SSTR4) of 277 nM and a Ki (SSTR5) of 211 nM.
In the case of `Cc1cn(CC(=O)N(CCN)CC(=O)N[C@@H]2CSSC[C@H](C(=O)N[C@H](C(=O)N[C@@H](Cc3ccc(O)cc3)C(N)=O)[C@@H](C)OCc3ccccc3)NC(=O)[C@H](CCCCN)NC(=O)[C@@H](Cc3c[nH]c4ccccc34)NC(=O)[C@H](Cc3ccccc3)NC2=O)c(=O)[nH]c1=O` [Taeg-c[D-Cys-Phe-D-Trp-Lys-D-Cys]-Thr(Bzl)-Tyr-NH2] ({Acetyl(thymin-1-yl)}-[Gly(N-2-aminoethyl)][dC]F[dW]K[dC]T(Bn)Y-NH2; disulfide 2-6; N-terminus assumed), the Ki (SSTR1) is reported as 8.48 nM, the Ki (SSTR2) is reported as greater than 1000 nM and the Ki (SSTR3) is reported as greater than 1000 nM. The Ki (SSTR4) was 530 nM and the Ki (SSTR5) was 72.8 nM.
